The supplement of paper PMC12819154, “High-throughput peptide-centric local stability assay extends protein–ligand identification to membrane proteins, tissues and bacteria” (Nature Structural & Molecular Biology, 2025)
The list shows a part of the results. Most values lie at the level of the controls, where differences are scatter.

Sequences of proteins named here, by UniProt entry; tags and fusion partners are left off. A change or cut given only in a name is not applied to a line headed by its entry.
UniProt Q8IY81: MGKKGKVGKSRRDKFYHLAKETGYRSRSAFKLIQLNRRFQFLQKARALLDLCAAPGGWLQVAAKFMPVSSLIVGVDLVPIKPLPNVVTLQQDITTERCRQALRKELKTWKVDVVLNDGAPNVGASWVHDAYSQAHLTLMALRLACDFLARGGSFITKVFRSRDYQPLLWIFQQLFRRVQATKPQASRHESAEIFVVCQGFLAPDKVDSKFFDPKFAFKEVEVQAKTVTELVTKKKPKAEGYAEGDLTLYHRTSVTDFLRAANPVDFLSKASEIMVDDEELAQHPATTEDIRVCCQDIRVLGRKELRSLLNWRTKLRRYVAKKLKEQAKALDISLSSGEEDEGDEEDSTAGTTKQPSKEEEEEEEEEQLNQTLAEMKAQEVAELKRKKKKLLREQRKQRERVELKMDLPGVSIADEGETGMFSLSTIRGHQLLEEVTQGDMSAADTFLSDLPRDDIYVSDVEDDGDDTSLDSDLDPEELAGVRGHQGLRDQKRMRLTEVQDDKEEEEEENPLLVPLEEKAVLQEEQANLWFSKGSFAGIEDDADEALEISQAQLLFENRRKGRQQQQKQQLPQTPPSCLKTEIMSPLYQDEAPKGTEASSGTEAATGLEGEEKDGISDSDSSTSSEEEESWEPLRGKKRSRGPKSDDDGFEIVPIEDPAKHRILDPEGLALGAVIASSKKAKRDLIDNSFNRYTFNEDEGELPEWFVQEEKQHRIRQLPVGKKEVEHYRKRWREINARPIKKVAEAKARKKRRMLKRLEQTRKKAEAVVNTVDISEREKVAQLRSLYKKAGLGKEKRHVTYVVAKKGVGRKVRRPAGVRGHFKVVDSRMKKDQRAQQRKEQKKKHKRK
UniProt Q86YI8: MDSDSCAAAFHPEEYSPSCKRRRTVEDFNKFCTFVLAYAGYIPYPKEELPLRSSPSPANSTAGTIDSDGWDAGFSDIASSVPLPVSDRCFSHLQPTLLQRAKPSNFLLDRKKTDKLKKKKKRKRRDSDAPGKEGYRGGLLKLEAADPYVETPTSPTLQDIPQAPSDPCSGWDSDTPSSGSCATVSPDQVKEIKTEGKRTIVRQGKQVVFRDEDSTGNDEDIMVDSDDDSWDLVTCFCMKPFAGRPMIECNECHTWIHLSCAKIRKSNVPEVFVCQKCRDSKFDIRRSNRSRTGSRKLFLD
UniProt Q86XA9: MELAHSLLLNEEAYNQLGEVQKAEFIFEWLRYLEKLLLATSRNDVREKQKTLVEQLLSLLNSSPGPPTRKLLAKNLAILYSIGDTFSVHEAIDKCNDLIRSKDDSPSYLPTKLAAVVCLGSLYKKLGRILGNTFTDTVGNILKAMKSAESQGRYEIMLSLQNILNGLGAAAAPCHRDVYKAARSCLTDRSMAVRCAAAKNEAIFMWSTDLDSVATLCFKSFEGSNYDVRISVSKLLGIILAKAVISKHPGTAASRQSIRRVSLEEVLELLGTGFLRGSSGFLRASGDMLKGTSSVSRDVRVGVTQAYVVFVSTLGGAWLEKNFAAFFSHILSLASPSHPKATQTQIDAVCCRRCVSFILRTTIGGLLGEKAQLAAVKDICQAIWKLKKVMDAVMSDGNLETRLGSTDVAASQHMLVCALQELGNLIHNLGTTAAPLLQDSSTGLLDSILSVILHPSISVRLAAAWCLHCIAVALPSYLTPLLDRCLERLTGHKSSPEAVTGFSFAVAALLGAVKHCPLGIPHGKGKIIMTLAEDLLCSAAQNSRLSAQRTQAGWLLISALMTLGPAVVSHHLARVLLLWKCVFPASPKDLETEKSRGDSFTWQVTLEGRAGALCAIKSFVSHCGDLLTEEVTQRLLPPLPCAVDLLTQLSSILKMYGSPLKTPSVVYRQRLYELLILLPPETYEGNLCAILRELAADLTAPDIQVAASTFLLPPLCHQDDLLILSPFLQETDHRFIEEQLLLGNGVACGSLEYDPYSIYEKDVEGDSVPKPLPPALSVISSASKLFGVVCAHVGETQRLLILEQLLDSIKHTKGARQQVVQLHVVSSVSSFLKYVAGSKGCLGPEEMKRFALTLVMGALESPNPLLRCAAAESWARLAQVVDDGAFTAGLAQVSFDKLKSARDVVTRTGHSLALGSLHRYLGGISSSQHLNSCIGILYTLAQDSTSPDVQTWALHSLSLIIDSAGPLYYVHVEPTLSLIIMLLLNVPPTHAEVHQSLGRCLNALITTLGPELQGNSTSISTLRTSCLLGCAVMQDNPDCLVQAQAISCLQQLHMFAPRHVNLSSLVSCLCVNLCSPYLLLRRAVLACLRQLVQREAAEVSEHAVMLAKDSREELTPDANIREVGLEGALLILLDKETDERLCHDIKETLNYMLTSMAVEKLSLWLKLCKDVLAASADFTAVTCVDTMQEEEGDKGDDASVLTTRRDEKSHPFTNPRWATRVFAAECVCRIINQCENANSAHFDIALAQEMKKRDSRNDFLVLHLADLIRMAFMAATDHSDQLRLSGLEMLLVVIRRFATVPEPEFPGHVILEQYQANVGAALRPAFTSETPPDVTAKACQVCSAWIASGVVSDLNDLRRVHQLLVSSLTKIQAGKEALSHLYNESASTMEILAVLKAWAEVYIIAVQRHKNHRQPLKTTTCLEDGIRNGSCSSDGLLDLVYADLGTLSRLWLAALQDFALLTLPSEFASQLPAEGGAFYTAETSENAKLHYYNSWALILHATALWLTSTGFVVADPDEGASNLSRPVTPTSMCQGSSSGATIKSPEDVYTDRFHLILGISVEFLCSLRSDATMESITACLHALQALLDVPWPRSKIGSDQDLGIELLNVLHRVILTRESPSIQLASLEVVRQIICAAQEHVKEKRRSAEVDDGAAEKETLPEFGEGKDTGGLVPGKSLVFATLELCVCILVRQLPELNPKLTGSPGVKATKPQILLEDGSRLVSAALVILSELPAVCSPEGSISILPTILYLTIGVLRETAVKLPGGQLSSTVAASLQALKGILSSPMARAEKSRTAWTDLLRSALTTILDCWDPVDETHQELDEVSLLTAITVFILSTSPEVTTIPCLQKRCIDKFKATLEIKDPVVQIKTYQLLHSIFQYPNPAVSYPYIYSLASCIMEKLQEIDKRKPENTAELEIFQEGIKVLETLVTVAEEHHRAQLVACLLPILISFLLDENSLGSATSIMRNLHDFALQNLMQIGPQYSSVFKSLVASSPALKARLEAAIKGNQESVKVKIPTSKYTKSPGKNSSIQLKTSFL
UniProt Q8IYL2: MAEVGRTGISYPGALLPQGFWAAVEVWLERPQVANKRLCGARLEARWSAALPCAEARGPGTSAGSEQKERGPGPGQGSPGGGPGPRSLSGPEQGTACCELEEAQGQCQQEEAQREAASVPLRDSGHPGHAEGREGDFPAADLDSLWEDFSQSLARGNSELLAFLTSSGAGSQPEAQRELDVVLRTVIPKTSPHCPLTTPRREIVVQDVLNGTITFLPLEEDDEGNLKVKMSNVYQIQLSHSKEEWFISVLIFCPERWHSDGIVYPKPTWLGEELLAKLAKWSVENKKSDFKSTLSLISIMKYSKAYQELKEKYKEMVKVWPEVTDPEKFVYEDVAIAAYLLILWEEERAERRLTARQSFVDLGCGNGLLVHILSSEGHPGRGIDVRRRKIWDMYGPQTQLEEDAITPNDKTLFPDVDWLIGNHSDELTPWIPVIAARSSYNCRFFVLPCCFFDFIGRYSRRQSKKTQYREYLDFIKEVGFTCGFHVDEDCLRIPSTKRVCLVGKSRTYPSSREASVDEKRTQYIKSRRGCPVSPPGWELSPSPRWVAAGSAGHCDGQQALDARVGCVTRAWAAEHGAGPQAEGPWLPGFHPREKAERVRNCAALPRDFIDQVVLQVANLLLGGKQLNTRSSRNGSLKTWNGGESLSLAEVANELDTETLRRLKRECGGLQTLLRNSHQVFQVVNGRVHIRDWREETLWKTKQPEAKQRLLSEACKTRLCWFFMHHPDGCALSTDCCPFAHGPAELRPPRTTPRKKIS
UniProt Q8N2Y8: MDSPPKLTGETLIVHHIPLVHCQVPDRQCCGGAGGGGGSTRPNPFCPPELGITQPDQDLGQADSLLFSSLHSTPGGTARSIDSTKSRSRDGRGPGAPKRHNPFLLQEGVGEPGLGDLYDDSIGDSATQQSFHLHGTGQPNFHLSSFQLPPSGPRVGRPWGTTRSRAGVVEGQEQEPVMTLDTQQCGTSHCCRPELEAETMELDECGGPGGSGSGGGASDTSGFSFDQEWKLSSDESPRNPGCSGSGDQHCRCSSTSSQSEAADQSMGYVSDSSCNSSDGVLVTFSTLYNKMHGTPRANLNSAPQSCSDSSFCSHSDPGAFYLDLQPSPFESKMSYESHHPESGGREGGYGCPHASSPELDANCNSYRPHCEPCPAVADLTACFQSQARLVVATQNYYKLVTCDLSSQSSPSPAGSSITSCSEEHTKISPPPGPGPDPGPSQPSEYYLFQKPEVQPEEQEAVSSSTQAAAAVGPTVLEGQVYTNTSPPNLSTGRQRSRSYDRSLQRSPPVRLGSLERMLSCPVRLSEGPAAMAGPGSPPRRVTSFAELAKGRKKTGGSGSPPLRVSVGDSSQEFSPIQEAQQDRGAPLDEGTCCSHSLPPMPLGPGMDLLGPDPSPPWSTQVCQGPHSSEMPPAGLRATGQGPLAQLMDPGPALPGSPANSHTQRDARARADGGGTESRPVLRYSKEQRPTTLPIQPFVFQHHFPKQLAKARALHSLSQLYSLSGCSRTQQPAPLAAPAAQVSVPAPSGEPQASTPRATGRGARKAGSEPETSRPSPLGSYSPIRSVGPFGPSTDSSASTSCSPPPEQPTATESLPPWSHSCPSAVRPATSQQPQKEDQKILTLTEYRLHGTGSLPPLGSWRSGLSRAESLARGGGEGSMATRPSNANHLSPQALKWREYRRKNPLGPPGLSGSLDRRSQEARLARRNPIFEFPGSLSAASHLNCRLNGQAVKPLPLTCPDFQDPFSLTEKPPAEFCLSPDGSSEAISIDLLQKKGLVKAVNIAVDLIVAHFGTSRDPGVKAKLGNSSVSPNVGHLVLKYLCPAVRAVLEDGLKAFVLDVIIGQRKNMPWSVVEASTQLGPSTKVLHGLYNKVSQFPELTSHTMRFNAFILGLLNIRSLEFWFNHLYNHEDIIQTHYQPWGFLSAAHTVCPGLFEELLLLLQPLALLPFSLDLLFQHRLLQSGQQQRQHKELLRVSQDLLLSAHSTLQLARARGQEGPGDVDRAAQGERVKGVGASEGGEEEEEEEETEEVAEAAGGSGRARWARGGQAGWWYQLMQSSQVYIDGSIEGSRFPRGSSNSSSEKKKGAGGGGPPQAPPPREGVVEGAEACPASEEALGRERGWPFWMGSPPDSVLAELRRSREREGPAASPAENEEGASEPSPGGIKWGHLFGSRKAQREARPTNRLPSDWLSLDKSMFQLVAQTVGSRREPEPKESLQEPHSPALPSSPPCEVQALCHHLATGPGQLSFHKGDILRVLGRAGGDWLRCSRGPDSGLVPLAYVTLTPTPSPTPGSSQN
UniProt Q8IU81: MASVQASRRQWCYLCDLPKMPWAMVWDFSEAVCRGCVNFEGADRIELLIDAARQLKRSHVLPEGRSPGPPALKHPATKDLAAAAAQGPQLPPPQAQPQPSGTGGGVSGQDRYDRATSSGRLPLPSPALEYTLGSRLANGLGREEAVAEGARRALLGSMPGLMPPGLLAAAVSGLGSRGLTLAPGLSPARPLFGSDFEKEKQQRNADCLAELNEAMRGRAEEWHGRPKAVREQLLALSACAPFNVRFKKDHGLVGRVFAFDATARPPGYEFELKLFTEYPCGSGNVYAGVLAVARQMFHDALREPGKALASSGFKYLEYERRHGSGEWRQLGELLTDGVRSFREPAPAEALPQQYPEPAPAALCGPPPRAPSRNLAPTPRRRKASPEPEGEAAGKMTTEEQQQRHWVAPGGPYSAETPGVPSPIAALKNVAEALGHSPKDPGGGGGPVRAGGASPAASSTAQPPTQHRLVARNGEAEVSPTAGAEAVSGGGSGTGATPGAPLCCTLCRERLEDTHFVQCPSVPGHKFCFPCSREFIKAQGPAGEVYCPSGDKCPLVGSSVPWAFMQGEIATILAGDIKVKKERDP
UniProt Q86XK3: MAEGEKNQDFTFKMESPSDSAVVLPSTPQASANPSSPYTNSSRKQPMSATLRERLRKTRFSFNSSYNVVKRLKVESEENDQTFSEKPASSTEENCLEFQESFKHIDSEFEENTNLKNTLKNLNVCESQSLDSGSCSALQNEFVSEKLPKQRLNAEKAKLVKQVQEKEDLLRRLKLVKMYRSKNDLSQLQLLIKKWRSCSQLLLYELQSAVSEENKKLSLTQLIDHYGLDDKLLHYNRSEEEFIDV

Compound: CN[C@@H]1C[C@H]2O[C@@](C)([C@@H]1OC)n1c3ccccc3c3c4c(c5c6ccccc6n2c5c31)C(=O)NC4 [staurosporine]
Experiment: log2 fold change of tryptic peptide abundance, ligand vs vehicle (limited proteolysis) (log2 ratio); higher = more trypsin-susceptible (destabilized)
Conditions: ligand concentration: 20 uM; sample: K562 cleared lysate; digestion: 4 min, 22 C (HT-PELSA RT4min, Orbitrap Astral)

Target	log2 fold change
FTSJ3 (peptide sequence: AEGYAEGDLTLYHR, peptide start residue: 238) (UniProt Q8IY81)	-0.218
PHF13 (peptide sequence: DSDAPGKEGYR, peptide start residue: 126) (UniProt Q86YI8)	0.394
HEATR5A (peptide sequence: SLVASSPALK, peptide start residue: 1991) (UniProt Q86XA9)	0.0723
MGA (peptide sequence: KLEYIYAK, peptide start residue: 2513) (UniProt Q8IWI9)	0.611
UniProt Q8IX21 (peptide sequence: HHPEESPLGAK, peptide start residue: 225)	0.797
ZNF595 (peptide sequence: AYNLSSTLTK, peptide start residue: 572) (UniProt Q8IYB9)	0.188
AHI1 (peptide sequence: HHESSSVDTEPGLEESKEVIK, peptide start residue: 566) (UniProt Q8N157)	0.271
UniProt Q8IYL2 (peptide sequence: RGCPVSPPGWELSPSPR, peptide start residue: 528)	0.34
RUSC2 (peptide sequence: WGHLFGSR, peptide start residue: 1386) (UniProt Q8N2Y8)	0.472
IRF2BP1 (peptide sequence: RQWCYLCDLPK, peptide start residue: 9) (UniProt Q8IU81)	0.648
SFR1 (peptide sequence: SKNDLSQLQLLIKK, peptide start residue: 181) (UniProt Q86XK3)	0.867

An excerpt from further up, as a working copy:
Target	log2 fold change
IRF2BP1 (peptide sequence: RQWCYLCDLPK, peptide start residue: 9) (UniProt Q8IU81)	0.648
SFR1 (peptide sequence: SKNDLSQLQLLIKK, peptide start residue: 181) (UniProt Q86XK3)	0.867
